Assay results from US20250019430A1.
No constants are given. Whether binding was seen depends on the method and setting. Some binding calls cover weakened binding; strength is not graded here.

Sequences of proteins named here, by UniProt entry; tags and fusion partners are left off. A change or cut given only in a name is not applied to a line headed by its entry. Residues count along the entry.
UniProt Q9HD89: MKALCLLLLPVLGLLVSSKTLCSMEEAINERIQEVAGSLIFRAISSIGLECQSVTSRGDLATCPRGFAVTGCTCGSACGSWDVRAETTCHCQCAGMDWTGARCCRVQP
recombinant human resistin (peprotech, #450-19): residues 17-108 of Q9HD89
resistin antigen: residues 19-108 of Q9HD89

Key:
[1] = biological target: recombinant human resistin (peprotech, #450-19) (human) (UniProt Q9HD89); assay: ELISA, coated recombinant human resistin, IgG at 1, 10, 100 nM
[2] = biological target: resistin antigen (UniProt Q9HD89); assay: ELISA of Example 12
[3] = biological target: RETN-flag-His (human) (UniProt Q9HD89); assay: ELISA, coated antigen, IgG at 1, 10, 100 nM

Binder | binding [1] | binding [2] | binding [3]
RETN-5A2_LS_2D07 (antibody, human IgG1, V domains shown) VH: QVQLVQSGAEGRKPGSSVKVSCKVSGDTFSSYAISWVRQAPGQGLEWMGGIIPIFGAADYAQKFKGRVTISADESTSTAYMELSSLRSEDTAVYYCAKGPDYYGSFDPWGQGTLITVSS VL: QSALTQPASVSGSPGQSVTISCTGTSSDIGRYNRVSWYQHHPGKAPKLIIYDVSNRPSGVSNRFSGSKSGNTASLTISGLQAGDESDYYCSAYTRSSTWVFGGGTKLTVLR | binds | binds | binds
RETN-5A2_LS_2B02 (antibody, human IgG1, V domains shown) VH: QVQLVQSGAEGRKPGSSVKVSCKVSGDTFSSYAISWVRQAPGQGLEWMGGIIPIFGAADYAQKFKGRVTISADESTSTAYMELSSLRSEDTAVYYCAKGPDYYGSFDPWGQGTLITVSS VL: DIQMTQSPGTLSLSAGERATLSCRASQSVRGSYLAWYQQKPGQAPRLLIYGTSSRAPGIPDRFSGSGSGTDFTLTISSLEPEDFAVYYCQQRGDWLYTFGQGTKVEIKR | binds | binds | 
RETN-5A2_LS_2E10 (antibody, human IgG1, V domains shown) VH: QVQLVQSGAEGRKPGSSVKVSCKVSGDTFSSYAISWVRQAPGQGLEWMGGIIPIFGAADYAQKFKGRVTISADESTSTAYMELSSLRSEDTAVYYCAKGPDYYGSFDPWGQGTLITVSS VL: DIQMTQSPSSLSASVGDRVTITCRTSQTITNYLNWYQQKPGRAPKLLIFDASNLETGVPSRFSGSGSGTDFTLTISSLQPEDFATYFCQQSYNPGYTFGQGTKLEIKR | binds | binds | 
RETN-5A2 (antibody, human IgG1, V domains shown) VH: QVQLVQSGAEGRKPGSSVKVSCKVSGDTFSSYAISWVRQAPGQGLEWMGGIIPIFGAADYAQKFKGRVTISADESTSTAYMELSSLRSEDTAVYYCAKGPDYYGSFDPWGQGTLITVSS VL: DIQMTQSPSFLSASVGDRVTITCRASQYIGTYLAWYQQQPGKAPKLLIYGASILQNGVPSRFSGSASGTEFTLTISSLQPEDFATYYCQQADSFPLTFGGGTKVDIKR | binds |  | 

The remaining lines, values ahead:

binding [1] | binding [2] | binding [3] | Binder
binds | binds | binds | RETN-5A2_LS_2H10 (antibody, human IgG1, V domains shown) VH: QVQLVQSGAEGRKPGSSVKVSCKVSGDTFSSYAISWVRQAPGQGLEWMGGIIPIFGAADYAQKFKGRVTISADESTSTAYMELSSLRSEDTAVYYCAKGPDYYGSFDPWGQGTLITVSS VL: NFMLTQPASVSGSPGQSITISCTGSSSDVGGYNYVTWYQQHPGKAPQLIIYDVTKRPSGVSNRFSGSKSGNSASLTISGLQAEDEADYYCSSYSSSTFYVFGTGTKVTVLR
binds | binds |  | RETN-5A2_LS_2G03 (antibody, human IgG1, V domains shown) VH: QVQLVQSGAEGRKPGSSVKVSCKVSGDTFSSYAISWVRQAPGQGLEWMGGIIPIFGAADYAQKFKGRVTISADESTSTAYMELSSLRSEDTAVYYCAKGPDYYGSFDPWGQGTLITVSS VL: DIQMTQSPSSLSASVGDRVTITCQASQHVSSYLNWYQQKPGKAPKLLIYAASNLQSGVPSRFSGSGSGTDFTLTISSLQPDDFATYYCQQYDSYSSVYTFGPGTKLDIKR
binds | binds |  | RETN-5A2_LS_2F11 (antibody, human IgG1, V domains shown) VH: QVQLVQSGAEGRKPGSSVKVSCKVSGDTFSSYAISWVRQAPGQGLEWMGGIIPIFGAADYAQKFKGRVTISADESTSTAYMELSSLRSEDTAVYYCAKGPDYYGSFDPWGQGTLITVSS VL: DIQMTQSPSSLSASVGDRVTITCRASQSIGTYLNWYQQKPGKAPKLLIYDASSLEDGVPSRFSGSGSGTDFTLTISSLQPEDSATYYCQQSYTMPLYTFGQGTKLEIKR
